In patent publication US20240317867A1:
Results are given in words; binding and its absence hold for the method and conditions named. For some of these results: Binding seen in cells or lysates may run through a third protein. Some results given as binding are weak or reduced against the parent protein; the word gives no strength.

Key:
[1] = molecular target: T1, IGFR-like receptor 1 (endogenous protein of mouse Min6 insulinoma cells) (mouse) (UniProt A2AFS3); experiment: co-immunostaining and co-immunoprecipitation in Min6 cells
T1 sequence (looked up): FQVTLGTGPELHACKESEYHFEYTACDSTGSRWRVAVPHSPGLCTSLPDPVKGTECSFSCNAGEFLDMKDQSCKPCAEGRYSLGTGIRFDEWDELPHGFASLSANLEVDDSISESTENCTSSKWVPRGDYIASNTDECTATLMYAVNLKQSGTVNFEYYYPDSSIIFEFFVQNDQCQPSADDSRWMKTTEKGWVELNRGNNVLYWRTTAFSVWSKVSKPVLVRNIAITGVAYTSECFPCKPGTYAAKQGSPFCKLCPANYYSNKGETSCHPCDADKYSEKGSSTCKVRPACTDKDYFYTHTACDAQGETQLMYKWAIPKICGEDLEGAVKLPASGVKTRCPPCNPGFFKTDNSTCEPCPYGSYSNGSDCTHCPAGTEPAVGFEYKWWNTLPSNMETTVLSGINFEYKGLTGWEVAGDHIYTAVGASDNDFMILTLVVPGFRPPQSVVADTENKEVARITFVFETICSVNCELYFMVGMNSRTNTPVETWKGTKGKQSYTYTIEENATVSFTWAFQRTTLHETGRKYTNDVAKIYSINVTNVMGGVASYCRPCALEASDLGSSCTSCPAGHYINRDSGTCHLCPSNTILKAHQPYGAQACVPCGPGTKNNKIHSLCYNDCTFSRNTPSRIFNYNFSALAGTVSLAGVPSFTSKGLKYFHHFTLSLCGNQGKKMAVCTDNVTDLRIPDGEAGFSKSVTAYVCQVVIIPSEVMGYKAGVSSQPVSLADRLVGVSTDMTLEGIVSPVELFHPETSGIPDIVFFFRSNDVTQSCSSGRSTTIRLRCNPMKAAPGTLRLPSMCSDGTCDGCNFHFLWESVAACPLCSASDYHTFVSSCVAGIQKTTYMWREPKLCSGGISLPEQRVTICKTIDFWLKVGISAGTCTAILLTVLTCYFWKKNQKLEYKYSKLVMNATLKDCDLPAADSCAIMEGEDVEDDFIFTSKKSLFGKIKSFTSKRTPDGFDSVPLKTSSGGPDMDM

[2] = molecular target: T1, IGFR-like receptor 1 (endogenous protein of mouse Min6 insulinoma cells) (mouse); experiment: co-immunostaining in Min6 cells (co-localization; the filing counts strong co-localization as binding)
[3] = molecular target: T1, IGFR-like receptor 1 (endogenous protein of mouse Min6 insulinoma cells) (mouse); experiment: reciprocal co-immunoprecipitation from Min6 lysate (anti-IGFR-I1 and anti-IGFR-I2 antibodies, not named), Western blot
[4] = molecular target: T1, IGFR-like receptor 1 (endogenous protein of mouse Min6 insulinoma cells) (mouse); experiment: co-immunoprecipitation from Min6 lysate with 36D7 (anti-IGFR-I1), and the reverse with 28G11 (anti-IGFR-I2); Western blot

Measured: binding

B1: IGFR-like receptor 2 (endogenous protein of mouse Min6 insulinoma cells) (receptor, UniProt Q3UZV7 48-1028, looked up)
chain: GDSSSSGRPLPACQEKDYHFEYTECDSTGSRWRVAIPNSAVDCSGLPDPVKGKECTFSCASGEYLEMKNQVCSKCVEGTYSLGSGIKFDEWDELPAGFSNVATFMDTVVGPSDSRPDGCNNSSWLPRGNYIESNRDDCTVSLIYAVHLKKSGYVFFEYQYVDNNIFFEFFIQNDQCQEMDATTDKWVKLTDNGEWGSHSVMLKSGTNILYWRTTGILMGSKAVKPVLVKNITIEGVAYTSECFPCKPGTFSNKPGSFNCQMCPRNTYSEKGAKECIRCKEDSQFSEEGASECVDRPPCTTKDYFQIHTPCDEEGKTQIMYKWIEPKICREDLTDAIRLPPSGEKKDCPPCNPGFYNNGSSSCHPCPPGTFSDGTKECKSCPAGTEPALGFEYKWWNVLPANMKTSCFNVGNSKCDGMNGWEVAGDHIRSGAGGSDNDYLILNLHIPGFKPPTSMTGATGSELGRITFVFETLCSADCVLYFMVDINRKSTNVVESWGGTKEKQAYTHVIFKNATFTFTWAFQRTNQGQDNRRFINDVVKIYSITATNAVDGVAASCRACALGSEQSASSCVPCPPGHYIEKETNQCKECPADTYLSIHQVYGKEACIPCGPGSKSTQDHSLCYSDCFFYHEKENQTLHYDFRNLSSVGSLMNGPSFTSKGTKYFHFFNISLCGHEGRKMALCTNNISDFTVKEMVTGSDDYTNLVGAFVCQSTIIPSESKGFRAALSSQSIILADMFLGVTVDTALQNVNIKEDMFPVSPSQVPDVHFFYKSSTATTSCINGRSTAVKMRCNPMRPGAGVISVPSKCPAGTCDGCTFYFLWESAEACPLCTEHDFHEIEGACKRGLQEILYVWNEPKWCIKGISLPEKKLSTCETVDFWLKVGAGVGAFTAVLLVALTCYFWKKNQKLEYKYSKLVMTTNSKECELPAADSCAIMEGEDNEEDVVYSNKQSLLGKLKSLATKEKDDHFESVQLKSSRCPNI
binds: all assays above
